Laboratory results taken from the supplement of paper PMC12889115.
The list shows a part of the results. Values are raw readings; no control value is given beside them.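 In the initial screen, polymyxin B was used at a concentration that permeabilizes Salmonella's outer membrane but not its inner membrane. Maximum growth was set by DMSO wells with or without polymyxin B. Since plates varied, data were ranked per plate, and compounds giving the lowest OD600 advanced as hits.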

Test system: Salmonella enterica serovar Typhimurium SL1344
Experiment: bacterial growth OD600 after 18 h with compound and polymyxin B; higher = more bacterial growth (less inhibition)
Details: 50 µM, Mueller-Hinton broth

Compound | bacterial growth OD600 (polymyxin B 0.75 µg/mL) | bacterial growth OD600 (polymyxin B 1 µg/mL)
COc1ccc2c(c1)OC(C)CN(Cc1ccc(SC)cc1)C2 (stereo unspecified) | 0.093 | 
COC(=O)[C@@H]1CCCN1C(=O)Cc1ccc(N2CCC(N[C@H]3CCCCNC3=O)CC2)cc1 | 0.941 | 
Cc1csc(SCC(=O)N2CCCC(N3CCN(c4ccccc4C)CC3)C2)n1 (stereo unspecified) |  | 0.844
CN(Cc1cccnc1)C(=O)CC(c1cccc(O)c1)c1ccccc1Cl (stereo unspecified) |  | 0.803
CC(C)NC(=O)N1CCC2(CCCN(CC3CCCCC3)C2=O)C1 (stereo unspecified) |  | 0.875
COCc1ccc(CN2CCCC(CNC(=O)COc3ccccc3OC)C2)o1 (stereo unspecified) | 0.802 | 
Cc1nc(N2CCCC(C(=O)N(C)CC(O)c3ccccc3)C2)nc2cc(S(C)(=O)=O)ccc12 (stereo unspecified) | 0.851 | 
COc1ccc(OC2CCN(C3CCCC3)CC2)c(C(=O)N2CCCC(O)C2)c1 (stereo unspecified) |  | 1.31
COCc1noc(-c2ccc(N(Cc3cnn(C)c3)C(C)C)nc2)n1 |  | 0.987
Cc1ccc(CN2CCN(Cc3cccn3-c3ccc(Cl)cn3)CC2CCO)cc1 (stereo unspecified) |  | 0.613
Cc1ccccc1NC(=O)Nc1ccnn1C1CCN(C(=O)c2ccoc2C)CC1 |  | 0.858
CN(Cc1cnn(C)c1)C(=O)CC1(c2ccccc2)CC(=O)N(CCCOc2cccnc2)C1=O (stereo unspecified) | 0.846 | 
CC(=O)NCCC(=O)N1CCCC(CCc2ccccc2C(F)(F)F)C1 (stereo unspecified) |  | 0.988
O=C(Cn1ccnc1)N1CCCC(CCc2ccc(F)cc2F)C1 (stereo unspecified) | 0.788 | 
O=C(NCC1CCCN(Cc2cc3c(cc2Cl)OCO3)C1)c1cccs1 (stereo unspecified) |  | 0.877
CCOC(=O)C1(Cc2cccc(Cl)c2)CCCN(C(=O)c2cc(C(C)C)nn2C)C1 (stereo unspecified) |  | 0.417

Reprinted at random: two records from the list, in no set order.
Compound | bacterial growth OD600 (polymyxin B 0.75 µg/mL) | bacterial growth OD600 (polymyxin B 1 µg/mL)
Cc1csc(SCC(=O)N2CCCC(N3CCN(c4ccccc4C)CC3)C2)n1 (stereo unspecified) |  | 0.844
COCc1noc(-c2ccc(N(Cc3cnn(C)c3)C(C)C)nc2)n1 |  | 0.987

The listing continues.

Compound | bacterial growth OD600 (polymyxin B 0.75 µg/mL) | bacterial growth OD600 (polymyxin B 1 µg/mL)
COc1ccc(C(CC(=O)N(C)Cc2nonc2C)c2ccccc2)cc1 (stereo unspecified) |  | 0.581
COc1ccc(-c2nc(CN(Cc3ccccc3)C[C@@H]3CCC(=O)N3)c(C)o2)cc1C | -0.002 | 
CCN(CC)CCN(C)Cc1cnc(S(C)(=O)=O)n1CC1CCCO1 (stereo unspecified) |  | 1.02
CCN(CC)CCNC(=O)c1ccc(OC2CCN(S(C)(=O)=O)CC2)c(Cl)c1 |  | 1.35
COc1cc(CN2CCN(Cc3cnc(SC)nc3)CC2CCO)cc(OC)c1 (stereo unspecified) |  | 0.968
COc1cccc(CNC(C)c2cnn(-c3ccc(F)cc3F)c2C)c1 (stereo unspecified) | 0.804 | 
CC(=O)c1ccc(OCC(=O)NCC2Cc3c(F)ccc(-c4ccncc4)c3O2)cc1 (stereo unspecified) | 1 | 
Cc1nc(N(C)C2CCCCC2)ncc1C(C)NC(=O)C1CCC1 (stereo unspecified) | 0.615 | 
CN1CCCC(O)(CN2CCC(C(=O)c3ccccc3)CC2)C1=O (stereo unspecified) |  | 0.953
O=C(/C=C/c1cccnc1)N1CC[C@@H](N2CCN(c3ccccc3F)CC2)[C@H](O)C1 |  | 1.02
Cc1nnc(-c2cccc(NC(=O)C3CCN(C(=O)c4ccnn4C)CC3)c2)s1 |  | 0.893
CC(=O)c1ccc(F)c(-c2cc(C)cc3c2OC(CNC(=O)c2ccccc2F)C3)c1 (stereo unspecified) | 0.006 | 
CCNC(=O)c1cn(CC(C)C)cc(C(=O)NCc2cccc(C)c2)c1=O | 0.755 | 
CCOc1ccc(CN2CCN(Cc3cnn(CC)c3)CC2CCO)cc1 (stereo unspecified) |  | 0.959
CN(C)C(=O)CCC(=O)N1CCCC(CCc2cccc(F)c2)C1 (stereo unspecified) | 0.92 | 
